The test addresses HBH-∆F508-CFTR-3HA (UniProt P13569). The experiment in a line: pull-down; NeutrAvidin agarose pull-down of HBH-∆F508-CFTR-3HA from lysates of 293MSR WT and RNF5/185 DKO cells transfected with FLAG-His-UBE3C; 2 mM NaB for 1 day, 10 µM MG-132 for 1 h; mild lysis buffer (150 mM NaCl, 20 mM Tris, 0.1% NP-40, pH 7.4), 2 h at 4 °C; Western blotting. On the technique in general: In western blotting, separated proteins are transferred to a membrane and probed.

Amino acid sequences for entries named in this document (tags omitted). A change or cut given only in a name is not applied to a line headed by its entry. Chains listed by the source or under a name are the forms on record and can include a tag or linker.
HBH-∆F508-CFTR-3HA (P13569, form named): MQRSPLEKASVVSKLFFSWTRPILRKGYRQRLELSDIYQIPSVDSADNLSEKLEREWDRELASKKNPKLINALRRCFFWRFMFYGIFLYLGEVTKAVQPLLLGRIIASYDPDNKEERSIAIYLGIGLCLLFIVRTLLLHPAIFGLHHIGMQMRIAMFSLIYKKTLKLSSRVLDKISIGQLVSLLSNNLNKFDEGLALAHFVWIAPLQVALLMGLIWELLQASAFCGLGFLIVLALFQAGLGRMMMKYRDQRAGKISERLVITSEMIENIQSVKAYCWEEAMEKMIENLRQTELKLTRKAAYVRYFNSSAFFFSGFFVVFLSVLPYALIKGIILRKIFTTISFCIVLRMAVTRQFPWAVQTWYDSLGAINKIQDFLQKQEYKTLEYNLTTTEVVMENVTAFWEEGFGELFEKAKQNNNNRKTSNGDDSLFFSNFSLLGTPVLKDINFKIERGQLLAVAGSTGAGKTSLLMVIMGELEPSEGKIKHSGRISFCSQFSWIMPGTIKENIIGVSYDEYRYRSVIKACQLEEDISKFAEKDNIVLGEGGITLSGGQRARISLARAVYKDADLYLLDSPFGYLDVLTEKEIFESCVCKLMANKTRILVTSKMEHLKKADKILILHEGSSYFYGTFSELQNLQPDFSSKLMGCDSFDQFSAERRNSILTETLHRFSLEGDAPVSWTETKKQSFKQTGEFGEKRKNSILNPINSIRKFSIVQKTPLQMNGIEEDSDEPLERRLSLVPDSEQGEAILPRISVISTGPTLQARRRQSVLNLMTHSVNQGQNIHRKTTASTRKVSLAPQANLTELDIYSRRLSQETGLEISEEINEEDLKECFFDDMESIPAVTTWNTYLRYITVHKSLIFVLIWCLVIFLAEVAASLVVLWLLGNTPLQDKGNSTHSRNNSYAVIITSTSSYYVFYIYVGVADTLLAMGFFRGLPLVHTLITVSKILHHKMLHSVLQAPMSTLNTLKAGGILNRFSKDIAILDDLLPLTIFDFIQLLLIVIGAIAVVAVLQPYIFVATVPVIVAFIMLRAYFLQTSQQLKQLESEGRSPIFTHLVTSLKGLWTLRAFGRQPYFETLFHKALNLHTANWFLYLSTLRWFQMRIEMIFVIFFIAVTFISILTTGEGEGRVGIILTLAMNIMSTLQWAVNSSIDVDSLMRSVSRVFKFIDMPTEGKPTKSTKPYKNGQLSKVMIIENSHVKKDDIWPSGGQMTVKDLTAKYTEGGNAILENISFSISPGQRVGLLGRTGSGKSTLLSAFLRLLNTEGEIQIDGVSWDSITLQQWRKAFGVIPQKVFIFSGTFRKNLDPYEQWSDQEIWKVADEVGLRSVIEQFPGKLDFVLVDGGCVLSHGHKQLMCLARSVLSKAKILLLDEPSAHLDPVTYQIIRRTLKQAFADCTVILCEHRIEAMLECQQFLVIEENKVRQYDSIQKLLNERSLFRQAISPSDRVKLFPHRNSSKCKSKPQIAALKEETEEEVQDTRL
UniProt Q15386: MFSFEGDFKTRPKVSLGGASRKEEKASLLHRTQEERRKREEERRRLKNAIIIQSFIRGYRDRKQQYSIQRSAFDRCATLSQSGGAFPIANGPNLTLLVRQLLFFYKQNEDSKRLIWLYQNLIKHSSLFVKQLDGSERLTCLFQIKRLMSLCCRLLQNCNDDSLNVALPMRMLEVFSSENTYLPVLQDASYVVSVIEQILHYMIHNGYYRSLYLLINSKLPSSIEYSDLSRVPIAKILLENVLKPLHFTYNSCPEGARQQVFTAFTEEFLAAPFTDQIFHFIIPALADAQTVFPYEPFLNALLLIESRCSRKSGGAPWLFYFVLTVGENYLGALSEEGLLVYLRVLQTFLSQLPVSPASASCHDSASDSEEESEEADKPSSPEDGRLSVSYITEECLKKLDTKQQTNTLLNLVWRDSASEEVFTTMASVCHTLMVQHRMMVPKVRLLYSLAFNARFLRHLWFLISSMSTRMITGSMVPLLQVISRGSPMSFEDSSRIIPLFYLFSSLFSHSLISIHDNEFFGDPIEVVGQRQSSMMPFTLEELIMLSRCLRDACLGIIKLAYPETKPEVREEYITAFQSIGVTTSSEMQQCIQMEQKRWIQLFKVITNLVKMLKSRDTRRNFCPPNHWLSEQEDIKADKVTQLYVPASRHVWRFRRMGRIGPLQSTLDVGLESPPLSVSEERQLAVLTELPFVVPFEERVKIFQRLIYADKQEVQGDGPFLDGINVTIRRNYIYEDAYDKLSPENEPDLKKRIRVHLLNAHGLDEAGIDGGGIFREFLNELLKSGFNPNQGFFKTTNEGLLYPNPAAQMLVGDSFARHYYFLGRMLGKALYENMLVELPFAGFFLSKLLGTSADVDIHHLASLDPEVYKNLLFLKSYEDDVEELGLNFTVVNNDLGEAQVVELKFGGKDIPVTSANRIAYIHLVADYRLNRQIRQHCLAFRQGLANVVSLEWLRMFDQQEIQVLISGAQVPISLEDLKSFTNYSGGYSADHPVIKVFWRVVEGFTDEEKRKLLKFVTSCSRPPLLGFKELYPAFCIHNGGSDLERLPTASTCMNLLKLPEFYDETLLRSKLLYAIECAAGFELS

The values that follow come from article PMC10706245.

Results are given in words; binding and its absence hold for the method and conditions named. In cells and extracts the contact can be indirect. Some binding calls cover weakened binding; strength is not graded here.

Turning to “FLAG-His-UBE3C (from UniProt Q15386 1-1083) (enzyme)”, the binding result is recorded as “binds”.

Regarding “FLAG-His-C1051A-UBE3C (from UniProt Q15386 1-1083) (enzyme)”, the binding result is “binds”.
